Consider 60 compounds from PubChem BioAssay AID2685 (National Center for Advancing Translational Sciences (NCATS), 2010).

The nature of this test: qHTS Assay for Lipid Storage Modulators in Drosophila S3 Cells.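 As to cell number change: cells counted by Cell Tracker Red CMTPX staining in the red channel.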 The conditions noted are these: BODIPY lipid droplet fluorescence, 18-24 h; for cell number change: measured here: cell count max response, cells fed with added oleic acid. A digest of the protocol: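 Drosophila S3 cells got compounds at several concentrations plus oleic acid (400 uM solution). Laser-scanning cytometry with 488 nm excitation read lipid droplets at 500-530 nm and cells at 575-640 nm. Percent activity was relative to 20 uM Triacsin C.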
(In general: Quantitative high-throughput screening tests each substance at several concentrations.)

[1] abbreviates: measured here: cell number channel AC50, cells fed with added oleic acid.
Setting [2] is: measured here: lipid fluorescence (Fed channel) AC50, cells fed with added oleic acid.

This is one part of the list. These are further read-outs of the screen, such as a control signal, another cell line or another target. No call is given for them. Most of these compounds were active or inconclusive in the main read-out, so they are no random draw. Potencies come from curve fits of mixed quality, noted in brackets.

By AC50 is commonly meant the concentration giving half of the maximal activity seen. Turning to `CC(C)CCNC(=O)COc1cccc2c1OC(C)(C)C2`, the cell number change was 48.8%. Moreover, the AC50 under setting [1] was 20.6 µM [rising, single point].

With `CCc1nnc(NC(=O)CCC(=O)N2CCN(c3cc(Cl)ccc3C)CC2)s1`, the AC50 under setting [1] is 4.11 µM [falling, partial curve, poor fit]. For the compound `COc1cc2c(cc1NC(=O)c1ccc(C(C)(C)C)cc1)CCCC2`, under setting [2], the AC50 is 3.66 µM [falling, full curve]. On the same count and under the same terms, the same measure for `Cc1ccc(CN(C)C(=O)c2ccccc2Sc2ccccc2C#N)cc1`: 0.58 µM [falling, single point]. Turning to `CCC1(C)Cc2c(sc3nnn(CC(=O)Nc4cccc5ccccc45)c(=O)c23)CO1` (configuration not stated), the cell number change is -12.8%. For the same compound, the AC50 under setting [2] was 0.00461 µM [rising, full curve, poor fit]. With `Cn1c2ccccc2c(=O)c2c(=O)n(Cc3ccco3)c(COc3ccccc3)nc21`, the cell number change is 18.2%. In addition, the AC50 under setting [2] is 6.51 µM [rising, partial curve]. For the compound `Cc1cc(C(=O)N2CCN(c3cc(Cl)ccc3C)CC2)on1`, the cell number change was 4.32%. Further, under setting [2], the AC50 was 16.4 µM [falling, single point]. `O=C(CC1C(=O)NCCN1Cc1ccc(-c2ccccc2)cc1)NCc1ccncc1` (configuration not stated): the cell number change was determined as 23%. Also, under setting [2], the AC50 was 16.4 µM [rising, partial curve, poor fit]. Take `CCCCN(C(=O)c1ccc2c(c1)NC(=O)CS2)c1ccccc1`: the cell number change was 4.6%. `CCc1ccc(C(=O)c2oc3nc(C)cc(C)c3c2N)cc1`: under setting [2], the AC50 was 32.6 µM [falling, partial curve, poor fit]. On to `CCN1CCN(c2ccccc2NC(=O)C(C)Oc2ccc(C(C)=O)cc2)CC1` (configuration not stated), for which the AC50 under setting [2] was 23.1 µM [falling, partial curve]. `Cc1cccc(Nc2c(-c3ccc(N4CCOCC4)cc3)nc3ncccn23)c1`: the cell number change is -14.7%. Moreover, the AC50 under setting [2] is 0.731 µM [falling, full curve, poor fit]. `CCOC(=O)c1c(-c2ccc(C)cc2)csc1NC(=O)/C(C#N)=C/c1ccc(O)c(OC)c1`: under setting [2], the AC50 was 10.3 µM [falling, partial curve]. As for `O=C(CSc1nc(=O)n(Cc2ccccn2)c2c1CCC2)Nc1ccc(F)cc1F`, the cell number change turned out to be 19.3%. For the compound `COc1cc(C)ccc1OCC(=O)Nc1ccccc1N1CCOCC1`, the cell number change came to 7.43%. Under setting [2], the AC50 is 6.51 µM [rising, partial curve, poor fit]. For `COCCCN1C(=O)C(=O)/C(=C(/O)c2ccc(S(=O)(=O)N3CCOCC3)cc2)C1c1ccc(F)cc1` (configuration not stated), the cell number change amounted to 90.8%. For the same compound, the AC50 under setting [1] is 23.1 µM [rising, partial curve]. Turning to `CCN(c1ccccc1)S(=O)(=O)c1ccc2ccccc2c1`, the cell number change worked out at 28.1%. In addition, the AC50 under setting [2] was 9.2 µM [rising, partial curve, poor fit].

Turning to `Cc1ccc2[nH]c(O)c(N=O)c2c1`, the cell number change is -2.77%. For the same compound, under setting [1], the AC50 is 5.8 µM [falling, single point]. The AC50 under setting [2] is 3.66 µM [falling, partial curve, poor fit].

On to `CCOC(=O)C1CCCN(Cc2c(Cl)cccc2Cl)C1` (configuration not stated), for which the cell number change was -23.6%. The AC50 under setting [2] is 4.11 µM [falling, full curve, poor fit].

For the compound `COc1ccnc(Oc2ccc(F)cc2)c1-c1ncn[nH]1`, the cell number change was -42.6%. Besides, the AC50 under setting [1] was 18.4 µM [falling, single point]. As to `COCCN1C(=O)N(c2cccc(OC)c2)C(=O)C1CC(=O)Nc1ccc(OC)cc1` (configuration not stated), the cell number change was -22.1%. Under setting [2], the AC50 was 29.1 µM [rising, single point]. As for `O=c1c2ccccc2nc2n1C(CSc1ccc(F)cc1)CN2` (configuration not stated), the cell number change was 21.8%. Besides, the AC50 under setting [2] is 29.1 µM [rising, single point].

As for `OC(COCCOc1ccc(Br)cc1)CN1CCN(Cc2ccccc2)CC1` (configuration not stated), the AC50 under setting [2] was 1.84 µM [rising, partial curve]. As to `COc1cccc(N2CCN(C(=O)Cn3c(=O)oc4ccccc43)CC2)c1`, the cell number change was -18.4%. Moreover, the AC50 under setting [2] was 29.1 µM [falling, single point].

Turning to `Cc1c[n+](CC(=O)c2ccccc2)c(C)cn1`, the cell number change is -27%. Moreover, the AC50 under setting [2] is 0.58 µM [falling, single point].

In the case of `Cc1ccc(-c2noc(CCC(=O)NCCN3CCOCC3)n2)cc1`, the cell number change was 11.2%. In addition, the concentration at half-maximal activity (AC50) under setting [2] is 0.146 µM [falling, full curve]. Turning to `CCn1c(CCNC(=O)c2ccc(OC)cc2)nnc1SCc1ccc(Cl)c(Cl)c1`, the cell number change was -44.5%. The concentration at half-maximal activity (AC50) under setting [1] is 16.4 µM [falling, partial curve, poor fit]. Further, under setting [2], the AC50 is 14.6 µM [falling, partial curve]. As for `Cc1ccccc1OCC(=O)NCC(c1ccco1)N1CCCCC1` (configuration not stated), the cell number change was -5.52%. Besides, the AC50 under setting [2] was 0.13 µM [rising, full curve, poor fit]. For `C=CCN1C(=O)C(CC(=O)Nc2ccc(OC)cc2)SC1=Nc1ccc(S(N)(=O)=O)cc1` (configuration not stated), the cell number change is -1.33%. Also, the AC50 under setting [2] was 0.00517 µM [falling, full curve, poor fit]. Regarding `CCC(=O)c1ccc(OCc2ccccc2)c(OC)c1`, the cell number change was 6.58%. Besides, under setting [2], the AC50 was 1.46 µM [rising, full curve, poor fit]. `COc1cc(C2Nc3ccc4ncccc4c3C3=C2C(=O)CCC3)ccc1O` (configuration not stated): under setting [1], the AC50 was 1.84 µM [rising, partial curve].

Turning to `COC(=O)C(CC(=O)c1ccc(Br)cc1)n1nc(C)cc1C` (configuration not stated), the cell number change is -36.2%. Besides, under setting [1], the AC50 is 6.51 µM [falling, partial curve, poor fit]. For the same compound, the concentration at half-maximal activity (AC50) under setting [2] is 29.1 µM [falling, single point].

`Cc1ccc(NC(=O)N2CCCC2c2cccs2)cc1` (configuration not stated): the AC50 under setting [2] is 23.1 µM [falling, partial curve].

Turning to `CC(=O)Nc1ccc(NC(=O)C(C)OC(=O)c2cccs2)cc1` (configuration not stated), the cell number change is -9.64%. In addition, the AC50 under setting [2] is 0.461 µM [falling, full curve, poor fit]. On to `CSc1ncccc1C(=O)OCC(=O)Nc1cc(C(F)(F)F)ccc1N1CCOCC1`, for which the cell number change was -31.2%. The AC50 under setting [1] is 14.6 µM [falling, partial curve]. Under setting [2], the AC50 was 20.6 µM [falling, single point].

For `Fc1ccc(-c2onc3ccc(C4OCCO4)cc23)cc1`, the concentration at half-maximal activity (AC50) under setting [2] is 0.651 µM [rising, single point]. For `Cc1nn(-c2ccc(F)cc2)c(N)c1C1(O)C(=O)Nc2ccccc21` (configuration not stated), the cell number change was -40.3%.

`O=C(CN(C1CCCCC1)C1CCCCC1)N1CCc2ccccc2C1`: the cell number change is -8.02%. As to `COC(=O)Nc1nc(C)c(C(=O)N(C)C)s1`, the cell number change was -2.01%. For the same compound, the AC50 under setting [2] is 1.84 µM [falling, full curve]. As for `O=C(NCCCN1CCCC1=O)Nc1ccc([N+](=O)[O-])cc1`, the cell number change amounted to 27.8%. The AC50 under setting [2] is 29.1 µM [falling, single point]. As for `COC(=O)Cc1c[nH]c2cccc(OCC(O)CN(Cc3ccc([N+](=O)[O-])cc3)C(C)(C)C)c12` (configuration not stated), the cell number change was -37.7%. For the same compound, the AC50 under setting [1] was 23.1 µM [falling, partial curve].

Take `Cc1ccc(S(=O)(=O)Nc2cc(=O)[nH]c(SCC(=O)Nc3cccc(C)c3)n2)cc1`: the cell number change is -45%. Further, the AC50 under setting [1] is 9.2 µM [falling, partial curve]. Further, the AC50 under setting [2] was 6.51 µM [falling, partial curve]. For `NC(=S)N/N=C/c1coc2ccc(Br)cc2c1=O`, the cell number change was -16.7%. The AC50 under setting [1] was 0.116 µM [falling, full curve, poor fit]. Under setting [2], the AC50 is 6.51 µM [falling, partial curve, poor fit]. Consider `C=CCn1c(SCC(=O)Nc2cc(NC(C)=O)ccc2OC)nnc1-c1cccnc1`, for which the cell number change is -29.3%. In addition, the AC50 under setting [1] is 2.06 µM [falling, full curve, poor fit]. As to `Cc1ccc(NC(=O)n2ncc3c(C)cccc32)c(C)c1`, the cell number change came out at 15.5%. As to `COc1ccc(S(=O)(=O)N/N=C(/C)c2ccncc2)cc1OC`, the AC50 under setting [2] is 0.651 µM [rising, partial curve, poor fit].

In the case of `Cc1nn(Cc2ccc(C(=O)NC3CCCCC3)o2)c(C)c1Br`, the cell number change amounted to 1.48%. Further, the AC50 under setting [2] is 29.1 µM [rising, single point]. Turning to `COc1ccc(OC)c(N(C(=O)c2snc(C(N)=O)c2N)C(C(=O)NCc2ccccc2)c2ccc(O)cc2)c1` (configuration not stated), the cell number change was determined as 15.3%. Also, the AC50 under setting [2] was 0.58 µM [falling, single point]. Turning to `COc1cc2c(cc1OC)-c1cc3ccc(OC)c(OC)c3c[n+]1CC2`, under setting [2], the AC50 was 29.1 µM [rising, single point]. Regarding `O=C(COc1ccc(C2SCCS2)cc1)NNC(=O)C(Cl)Cl`, the cell number change was 20.4%. In addition, the AC50 under setting [2] is 51.7 µM [rising, partial curve]. Regarding `NC(=O)c1ccc(N=Cc2ccc([N+](=O)[O-])s2)cc1`, the cell number change was -78.5%. Moreover, under setting [1], the concentration at half-maximal activity (AC50) is 23.1 µM [falling, single point]. Consider `CC(C)OC(=O)Cn1c(=O)oc2ccccc21`, for which the cell number change is -18.6%.

With `CC(=O)Oc1ccc(C(=O)NCc2ccc3c(c2)OCO3)cc1`, the cell number change is -4.67%. Also, under setting [2], the AC50 is 29.1 µM [rising, single point].

`COC(=O)[C@H]1[C@H]2C[C@@H]3c4[nH]c5cc(OC)ccc5c4CCN3C[C@H]2C[C@@H](OC(=O)c2cc(OC)c(OC)c(OC)c2)[C@@H]1OC`: the cell number change worked out at 21.7%. Also, the AC50 under setting [1] is 1.84 µM [rising, partial curve, poor fit]. The concentration at half-maximal activity (AC50) under setting [2] was 2.06 µM [rising, partial curve, poor fit]. On to `Cc1cc(C2C(C#N)=C(N)OC3=C2C(=O)CCC3)c(C)s1` (configuration not stated), for which the AC50 runs as follows: under setting [1], 1.64 µM [falling, partial curve]; under setting [2], 0.82 µM [falling, single point]. In the case of `CC1(C)NC(=O)N(CC(=O)OCC(=O)Nc2cccc(F)c2)C1=O`, the cell number change is -64.7%. Also, the concentration at half-maximal activity (AC50) under setting [1] is 3.66 µM [falling, full curve].

Turning to `O=C(/C=C/c1ccccc1F)N1CCN(c2ccccn2)CC1`, the cell number change came out at 2.71%. The AC50 under setting [2] is 3.26 µM [rising, single point]. In the case of `COc1ccc(N2CCN(C(=O)c3ccc(OCc4c(C)noc4C)c(OC)c3)CC2)cc1`, the cell number change was found to be 171%. Under setting [1], the AC50 was 23.1 µM [rising, single point]. Turning to `O=C(CC1SC(=O)NC1=O)Nc1ccc(Cl)cc1` (configuration not stated), the cell number change was 3.24%. With `COC(=O)c1ccc(C(=S)N2CCOCC2)cc1`, under setting [2], the half-maximal activity concentration (AC50) is 23.1 µM [falling, partial curve].
